PubChem BioAssay AID1259425 – University of Nebraska Medical Center | 2018
Purpose: 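Compare each knockdown with KSR1 silencing using changes in marker transcripts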 (primary screen). Cells: HCT116 human colon cancer cells. Reagents: siRNA pool against human genes, 50 nM siRNA. Read-out: 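After 50 nM siRNA pool, branched-DNA assay measures six marker transcripts per well, minus blank, normalised to the geometric mean of two housekeeping transcripts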. Direction: BNIP3L mRNA: higher = more BNIP3L transcript after knockdown; NDRG1 mRNA: higher = more NDRG1 transcript after knockdown; BNIP3 mRNA: higher = more BNIP3 transcript after knockdown; ALDOC mRNA: higher = more ALDOC transcript after knockdown; ACSL5 mRNA: higher = more ACSL5 transcript after knockdown.
Shown is one part, drawn at random, of about 14,000 reagents tested. Reagent sequences are not shown. Not given: the time to read-out.

gene knocked down	BNIP3L mRNA, set 1	NDRG1 mRNA, set 1	BNIP3 mRNA, set 1	ALDOC mRNA, set 1	ACSL5 mRNA, set 1
ZNF423 (zinc finger protein 423)	0.171	0.161	0.451	0.0285	0.119
PAG1	0.157	0.0311	0.351	0.00801	0.212
MASP1 (MBL associated serine protease 1)	0.0783	0.222	0.313	0.0323	0.312
ABHD10 (abhydrolase domain containing 10, depalmitoylase)	0.0832	0.0508	0.228	0.0255	0.0979
HCCS (holocytochrome c synthase)	0.0706	0.138	0.24	0.0244	0.0808
ZNF593 (zinc finger protein 593)	0.171	0.109	0.357	0.0244	0.206
HABP2 (hyaluronan binding protein 2)	0.15	0.195	0.416	0.0321	0.134
RPP25 (ribonuclease P/MRP subunit p25)	0.288	0.091	0.362	0.0272	0.0489
TNNC2 (troponin C2, fast skeletal type)	0.116	0.163	0.223	0.015	0.122
CELA1 (chymotrypsin like elastase 1)	0.234	0.246	0.304	0.0376	0.226
CD2 (CD2 molecule)	0.0898	0.21	0.368	0.0251	0.145
PPIC (peptidylprolyl isomerase C)	0.112	0.476	0.261	0.0168	0.28
SCN4B (sodium voltage-gated channel beta subunit 4)	0.102	0.479	0.338	0.0398	0.224
TRPM3	0.126	0.307	0.333	0.0157	0.125
PRELP (proline and arginine rich end leucine rich repeat protein)	0.0984	0.267	0.317	0.0309	0.196
CCDC191 (coiled-coil domain containing 191)	0.0519	0.471	0.212	0.0182	0.238
DPF3 (double PHD fingers 3)	0.0751	0.074	0.283	0.0103	0.0583
SCPEP1 (serine carboxypeptidase 1)	0.0569	0.394	0.232	0.0096	0.316
SCARB2 (scavenger receptor class B member 2)	0.086	0.933	0.234	0.0412	0.2
SNAP23 (synaptosome associated protein 23)	0.301	1.56	0.448	0.174	0.314
SLC25A32	0.0686	0.173	0.266	0.0306	0.101
PRKACA (protein kinase cAMP-activated catalytic subunit alpha)	0.0789	0.0541	0.207	0.00767	0.203
REEP2 (receptor accessory protein 2)	0.0479	0.218	0.41	0.0686	0.127
TFAM (transcription factor A, mitochondrial)	0.086	0.191	0.257	0.0179	0.265
TAF1C	0.124	0.216	0.209	0.0103	0.115
ACTL7A (actin like 7A)	0.0507	0.105	0.311	0.0225	0.1
SNCAIP (synuclein alpha interacting protein)	0.0952	0.126	0.302	0.0652	0.11
ATP5F1C (ATP synthase F1 subunit gamma)	0.0898	0.173	0.375	0.0184	0.132
ELANE (elastase, neutrophil expressed)	0.0914	0.0871	0.303	0.0085	0.0717
EPB41 (erythrocyte membrane protein band 4.1)	0.133	0.104	0.231	0.0187	0.112
ZCCHC8 (zinc finger CCHC-type containing 8)	0.091	0.159	0.277	0.0244	0.165
ASMT (acetylserotonin O-methyltransferase)	0.107	0.209	0.161	0.0174	0.214
KDM1A (lysine demethylase 1A)	0.135	0.208	0.304	0.0212	0.217
ADGRL2 (adhesion G protein-coupled receptor L2)	0.183	0.0851	0.424	0.0561	0.141

3 of these entries, set out differently.
{"gene knocked down": "HCCS (holocytochrome c synthase)", "BNIP3L mRNA, set 1": 0.0706, "NDRG1 mRNA, set 1": 0.138, "BNIP3 mRNA, set 1": 0.24, "ALDOC mRNA, set 1": 0.0244, "ACSL5 mRNA, set 1": 0.0808}
{"gene knocked down": "ZNF593 (zinc finger protein 593)", "BNIP3L mRNA, set 1": 0.171, "NDRG1 mRNA, set 1": 0.109, "BNIP3 mRNA, set 1": 0.357, "ALDOC mRNA, set 1": 0.0244, "ACSL5 mRNA, set 1": 0.206}
{"gene knocked down": "HABP2 (hyaluronan binding protein 2)", "BNIP3L mRNA, set 1": 0.15, "NDRG1 mRNA, set 1": 0.195, "BNIP3 mRNA, set 1": 0.416, "ALDOC mRNA, set 1": 0.0321, "ACSL5 mRNA, set 1": 0.134}
